From patent US20220372099A1 (priority 2019, published 2022)
At least one peptide structure holds a part that was inferred or is arguable (an end, a ring closure or a residue).

Legend:
[1] = Phase I single dose study in healthy subjects; assay type: in vivo, human; conditions: 62 healthy subjects
From the text: Compound A is a hepcidin mimetic agent in clinical studies for multiple blood disorders.

erythropoietic activity [2] = assay: repeat-dose study, 4 weekly SC doses with 28-day recovery, limiting erythropoiesis
serum iron [3] = assay: PK-PD experiment, serum iron (Cobas Iron2 colorimetric assay); assay type: in vivo, Cynomolgus monkeys; conditions: 2.44 mg/kg SC, 8 hr post administration
Description: Iron content in plasma/serum was measured using a colorimetric assay on the Cobas c 111 according to instructions from the manufacturer of the assay (assay: IRON2: ACN 661).

serum iron [4] = assay: repeated subcutaneous injection in wild type mice; assay type: in vivo
erythropoietic activity [5] = assay: repeat-dose study, 13 weekly SC doses with 35-day recovery, limiting erythropoiesis; assay type: in vivo, Cynomolgus monkeys
From the text: A cohort of animals (4/sex/group) were sacrificed on Day 92 (Main), and the remaining animals (2/sex/group) were sacrificed on Day 120 following a 35-day recovery period (Recovery).

Polycythemia vera = assay: Phase 2 study in patients with phlebotomy-requiring Polycythemia vera

CCCCCCCCCCCCCCCC(=O)N[C@@H](CCC(=O)NCCCC[C@@H]1NC(=O)[C@H]([C@@H](C)CC)NC(=O)[C@@H](NC(=O)[C@@H]2CCCN2C(=O)[C@H](Cc2ccccc2)NC(=O)[C@H](Cc2c[nH]cn2)NC(=O)[C@@H](NC(=O)[C@H](CC(=O)O)NC(=O)CC(C)C)[C@@H](C)O)CSSC[C@@H](C(=O)N[C@@H](CCCCN)C(N)=O)NC(=O)CNC(=O)[C@H](CCCCN)NC(=O)[C@H](CO)NC(=O)[C@H](CCCNC(=N)N)NC(=O)[C@@H]2CCCN2C(=O)[C@H](CCC(=O)O)NC(=O)[C@H](Cc2ccccc2)NC1=O)C(=O)O [Compound A]
reduction in serum iron concentration from baseline [1]: 65%
reduction in transferrin saturation from baseline [1]: 70%
Hgb concentration per cell (MCHC and MCH) versus concurrent controls (erythropoietic activity [2]; SC weekly x4): dose-dependent decrease
Reticulocytosis (erythropoietic activity [2]; following prolonged RBC reduction, Day 29): statistically significant increases
RBC parameters following cessation of dosing (erythropoietic activity [2]; recovery period): returned to concurrent control values
reduction in serum iron (serum iron [3]): around 5 fold
hematocrit (serum iron [4]): dose-related decrease
serum iron (serum iron [4]): transiently decreased
Reticulocytes (erythropoietic activity [5]; across all dosing phase time points): elevated across all dosing phase time points in a dose-dependent manner
RBC parameters following cessation of dosing (erythropoietic activity [5]; recovery period): returned to concurrent control values
MCV and MCH during treatment (Polycythemia vera; 10-80 mg SC weekly): increased
TSAT and serum iron values during treatment (Polycythemia vera; 10-80 mg SC weekly): varied transiently but remained below normal ranges
hematocrit maintained by all subjects (Polycythemia vera; 10-80 mg SC weekly, after appropriate dose adjustment): < 45%
No. of Weeks PHL Free After 1st Compound A Dose (Polycythemia vera; Subject 1, low risk, exposure 10, 20, 40, 80, 40, 60, 40, PHB@W31 i.e. after randomization): 37 weeks
No. of Weeks PHL Free After 1st Compound A Dose (Polycythemia vera; Subject 2, high risk, exposure 10, 20, 40, 20, 40): 37 weeks
No. of Weeks PHL Free After 1st Compound A Dose (Polycythemia vera; Subject 3, high risk, concurrent HU 1500 mg, exposure 10, 20, 10): 26 weeks
No. of Weeks PHL Free After 1st Compound A Dose (Polycythemia vera; Subject 5, low risk, exposure 10, 20, 40, 80): 23 weeks
No. of Weeks PHL Free After 1st Compound A Dose (Polycythemia vera; Subject 6, high risk, concurrent HU 500 mg, exposure 20, 40, 80, 40): 14 weeks
No. of Weeks PHL Free After 1st Compound A Dose (Polycythemia vera; Subject 7, high risk, concurrent HU 1500 mg, exposure 20, 40): 12 weeks
No. of Weeks PHL Free After 1st Compound A Dose (Polycythemia vera; Subject 8, high risk, exposure 20, 40, 20): 10 weeks
No. of Weeks PHL Free After 1st Compound A Dose (Polycythemia vera; Subject 10, high risk, concurrent Interferon 180 mcg qw, exposure 20, 40): 1 weeks
No. of Weeks PHL Free After 1st Compound A Dose (Polycythemia vera; Subject 11, low risk, concurrent Interferon 45 mcg, exposure 20): 3 weeks
No. of Weeks PHL Free After 1st Compound A Dose (Polycythemia vera; Subject 12, low risk, concurrent Interferon, exposure 20): 12 weeks
No. of Weeks PHL Free After 1st Compound A Dose (Polycythemia vera; Subject 13, low risk, exposure 20): 1 weeks
elimination of TP requirements, duration (Polycythemia vera; TP-dependent PV patients): 7 months
therapeutic phlebotomies (TP) during part 1 (28 weeks) (Polycythemia vera; three subjects who completed part 1, 3-5 TP required in a similar period prior to study): no TP
